# Results taken from PubChem BioAssay AID1347076 (National Center for Advancing Translational Sciences (NCATS), 2019).
# Among all 400,000 compounds or so, about 13,000 (3.2%) were called active. The shares of active, inactive and inconclusive entries below differ from those in the screen. Calls come from the whole dose curve; as a rule, active = well fitted cell-killing curve with a large enough effect; inconclusive = small, poorly fitted or top-dose-only effect, or effect the other way; inactive = flat fitted curve, though single readings scatter. Potencies of inconclusive entries are doubtful fits and often do not repeat.
# Assay: qHTS assay for MDR1-selective chemotherapeutics: Primary screen using the drug-selected MDR subline cells KB-V1; note: nearly all actives have a fitted effect of over 60% in size
# Settings: KB-V1 MDR cells viability, CellTiter-Glo, 72 h; activity change, negative = cytotoxicity: at 46.1 µM (top of the series)
# How it was run: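 Readout: CellTiter-Glo luminescence, 10 min after addition. Cells: KB-V1 MDR subline, 72 h at 37 degrees C with compound. Analysis: corrected, normalized data fitted to concentration-effect curves.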
# % is set by controls: 0 for no effect and ±100 for the full control effect; potency is the fitted concentration of half-maximal effect.
SMILES,Potency,"activity change, negative = cytotoxicity"
COc1cc(CCN(C(=O)c2cc3ccccc3[nH]2)C(c2ccccn2)c2nc3ccccc3[nH]2)cc(OC)c1 (configuration not stated),inactive,
Cc1cc(C(=O)NCC2COc3ccccc3O2)c2ccccc2n1 (configuration not stated),"inconclusive: 18.4 µM [cytotoxic, partial curve]",
O=C(NC(=O)c1ccc(F)cc1F)Nc1ccc(Cl)cc1,inactive,
O=C(NC1CCCC1)c1ccc(CS(=O)(=O)Cc2ccccc2F)o1,inactive,
O=C(O)c1ccc(NC(=S)NC(NC(=O)c2ccco2)C(Cl)(Cl)Cl)cc1 (configuration not stated),inactive,
CCOC(=O)C(NC(=O)CC(C)C)(Nc1sc2c(c1C(N)=O)CCCC2)C(F)(F)F (configuration not stated),"inconclusive: 18.4 µM [cytotoxic, partial curve, poor fit]",
CCn1c(Cc2ccc(OC)cc2)nnc1SCC(=O)NC1CCCCC1,,inconclusive: 0%
COC(=O)c1ccc(C)c(NC(=O)CCSc2ccc(C)cc2)c1,"inconclusive: 20.6 µM [cytotoxic, partial curve, poor fit]",
Cc1sc2ncnc(NCCN3CCOCC3)c2c1C,active: 16.4 µM,
CC(=O)c1sc(Nc2nc3cc4c(cc3s2)OCO4)nc1C,"inconclusive: 16.4 µM [cytotoxic, single point]",
Cc1cccc(N2CCN(Cc3cc(=O)n4ccsc4n3)CC2)c1C,"inconclusive: 29.1 µM [cytotoxic, single point]",
Cc1sc2ncnc(N3CCN(CCOc4ccc(Cl)cc4)CC3)c2c1C,"inconclusive: 3.98 µM [cytotoxic, full curve, poor fit]",
CC(C)(C)c1ccccc1NC(=O)COC(=O)CN1C(=O)NC2(CCCC2)C1=O,"inconclusive: 29.1 µM [rising, single point]",
Cc1ccc(C)c(NC(=O)CN(C)C(=O)c2ccc3c(=O)n4c(nc3c2)CCC4)c1,"inconclusive: 29.1 µM [cytotoxic, single point]",
Cc1cccc(NC(=S)NN(Cc2ccccc2)c2ccccc2)c1C,"inconclusive: 15.8 µM [cytotoxic, single point]",
CC(Oc1ccccc1)C(=O)NC1CCSc2ccccc21 (configuration not stated),"inconclusive: 7.31 µM [rising, partial curve]",
CC(C)C1C2=C(CC(C)(C)CC2=O)ON1c1ccccc1 (configuration not stated),"inconclusive: 23.1 µM [cytotoxic, partial curve, poor fit]",
Cc1ccc(-c2cc(C(=O)NCc3ccco3)c3ccccc3n2)s1,"inconclusive: 11.6 µM [cytotoxic, partial curve]",
COc1ccc(C2=NOC(C(=O)NCc3ccccn3)C2)cc1 (configuration not stated),"inconclusive: 29.1 µM [cytotoxic, single point]",
CCOc1ccc(S(=O)(=O)N2CCN(C(=O)COc3ccc(Br)cc3)CC2)cc1,inactive,
O=C(O)c1ccc2c(c1)C(=O)N(c1cccc(S(=O)(=O)Nc3cccc(C(F)(F)F)c3)c1)C2=O,"inconclusive: 16.4 µM [rising, single point]",

# Structures listed so far that have a Cl atom, in the order listed:
SMILES,Potency,"activity change, negative = cytotoxicity"
O=C(NC(=O)c1ccc(F)cc1F)Nc1ccc(Cl)cc1,inactive,
O=C(O)c1ccc(NC(=S)NC(NC(=O)c2ccco2)C(Cl)(Cl)Cl)cc1 (configuration not stated),inactive,
Cc1sc2ncnc(N3CCN(CCOc4ccc(Cl)cc4)CC3)c2c1C,"inconclusive: 3.98 µM [cytotoxic, full curve, poor fit]",

# Later entries.

SMILES,Potency,"activity change, negative = cytotoxicity"
CC(=O)NC(CC(=O)NC12CC3CC(CC(C3)C1)C2)c1ccccc1 (configuration not stated),"inconclusive: 23.1 µM [cytotoxic, partial curve, poor fit]",
O=C(CN1C(=O)NC2(CCCCC2)C1=O)Nc1ccccc1N1CCCC1,"inconclusive: 8.2 µM [cytotoxic, partial curve]",
COc1ccc(-c2nc(Cn3c(SCc4ccc(C)cc4)nc4ccncc43)c(C)o2)cc1OC,inactive,
Cc1cccc(N(CC(=O)NCCc2ccccc2)S(=O)(=O)c2ccccc2)c1C,"inconclusive: 2.59 µM [cytotoxic, full curve]",
Cc1ccc(CNC(=O)c2ccc(Cl)c(S(N)(=O)=O)c2)n1C,"inconclusive: 29.1 µM [rising, single point]",
Cn1cnc(S(=O)(=O)Nc2ccc3c(c2)OCCO3)c1,"inconclusive: 0.461 µM [rising, full curve, poor fit]",
CCOc1cc(C(=O)NN2CCOCC2)cc(OCC)c1OCC,"inconclusive: 2.91 µM [cytotoxic, partial curve, poor fit]",
O=C(Nc1ccc2c(c1)Cc1ccccc1-2)c1cccnc1,"inconclusive: 23.1 µM [cytotoxic, single point]",
CCOC(=O)C1CCCN(S(=O)(=O)c2cnc(Cl)c(Br)c2)C1 (configuration not stated),"inconclusive: 29.1 µM [rising, single point]",
C[C@@]12C(=O)N(c3ccccc3)C(=O)N1[C@@H]1c3ccccc3OC[C@@H]1[C@H]2c1ccccc1,"inconclusive: 29.1 µM [cytotoxic, single point]",
C/C(=C\c1ccccc1)C(=O)Nc1nccs1,"inconclusive: 18.4 µM [cytotoxic, single point]",
O=C1CCCC2=C1C1(CCCC1)N=C(Nc1nc3cc(-c4ccccc4)ccc3o1)N2,"inconclusive: 29.1 µM [cytotoxic, single point]",
Cc1ccc(Cn2nnc3c(=O)n(CC(=O)NCc4ccco4)cnc32)cc1,"inconclusive: 20.6 µM [cytotoxic, single point]",
O=C(Nc1cccc(S(=O)(=O)N2CCOCC2)c1)c1ccc2c(=O)n3c(nc2c1)CCCCC3,"inconclusive: 14.6 µM [cytotoxic, partial curve]",
O=C(NCCCC(NC(=O)OCc1ccccc1)C(=O)O)OCc1ccccc1 (configuration not stated),inactive,
CCCOC(=O)c1ccc(OCC(O)Cn2c(C)nc3ccccc32)cc1 (configuration not stated),"inconclusive: 10.3 µM [cytotoxic, partial curve, poor fit]",
Cc1cccc(N(C(=O)CS(=O)CC(=O)Nc2ccc3c(c2)OCO3)C(C)C(=O)NC2CCCC2)c1C (configuration not stated),"inconclusive: 13 µM [cytotoxic, partial curve, poor fit]",
COc1ccc(CNc2ncnc3nc[nH]c23)cc1,inactive,
CCOC(=O)C1CCCN(C(=O)c2[nH]c(C(F)(F)F)nc2-c2ccccc2)C1 (configuration not stated),"inconclusive: 32.6 µM [cytotoxic, single point]",
CN=c1scc(-c2ccc(F)cc2)n1/N=C/c1ccc(O)c(O)c1,inactive,
CO/N=C/NC(=O)Cc1cn(-c2ncc(C(F)(F)F)cc2Cl)c2ccccc12,active: 13 µM,
